Source: PubChem BioAssay AID504804 (Drosophila RNAi Screening Center, 2011)
Assay: 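dsRNAs that improve Kc cell survival under doxorubicin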 (primary screen). Cells: Drosophila Kc cells. Knock-down reagent: long dsRNA against Drosophila genes, 0.5 µg dsRNA per well. Duration: 96 h (48 h knock-down, then 48 h drug). Conditions: doxorubicin 5 µg/ml for 48 h, added 48 h after dsRNA. Read-out: 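Luminescent ATP counts per replicate, not normalised, reflecting viable cells after 48 h dsRNA knock-down followed by 48 h of 5 µg/ml doxorubicin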. Scale: raw ATP luminescence: higher = more viable cells, protection from doxorubicin. Active means: 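Active when both duplicate wells lie at least 2 SD above the plate mean and protection is confirmed by rescreening and independent dsRNAs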.
The screen tested about 19,000 reagents; this is an unselected part of those that have a named target and a result. In the full data, 47 (0.25%) are marked active. 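Signals are raw, not normalised; exact z-scores behind calls not deposited; actives needed confirmation, so some wells reaching 2 SD are inactive.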 Names joined by + are all predicted targets of the reagent.

no.	target gene	amplicon	raw ATP luminescence, replicate 1	raw ATP luminescence, replicate 2	call
1	Ppcs	DRSC14127	43557	62540	inactive
2	Dnah3	DRSC08130	1.65e5	1.29e5	inactive
3	Dnah3	DRSC08513	77857	91000	inactive
4	4E-T	DRSC17208	42270	53270	inactive
5	Snx21	DRSC00564	1.17e5	87860	inactive
6	CG31404	DRSC15497	57680	86070	inactive
7	Gad1	DRSC08661	43613	34153	inactive
8	Gprk1	DRSC20732	2.02e5	2.10e5	inactive
9	Gprk1	DRSC20916	2.63e5	3.15e5	inactive
10	CG13010	DRSC19529	3.40e5	2.76e5	inactive
11	kek6	DRSC15299	31870	33850	inactive
12	Psf3	DRSC18216	3.42e5	3.15e5	inactive
13	Sec61beta	DRSC07548	1.34e5	1.44e5	inactive
14	Mpi	DRSC16417	52853	59930	inactive
15	CG32762	DRSC18298	35060	36200	inactive
16	CG18273	DRSC18150	44750	47980	inactive
17	Pvr	DRSC03080	43527	38033	inactive
18	Spn28Da	DRSC02162	41360	71437	inactive
19	Eglp4	DRSC04438	64997	50510	inactive
20	Ir7g	DRSC18008	43250	49900	inactive
21	InR	DRSC16717	35910	44980	inactive
22	Syn1	DRSC11803	63590	60860	inactive
23	Syn1	DRSC11804	60800	68207	inactive
24	His2B:CG33870 + His2B:CG33868 + His2B:CG33882 + 21 more	DRSC03757	47447	57433	inactive
25	CG11037	DRSC11631	82590	77940	inactive
26	CG13625	DRSC14627	41337	38440	inactive
27	CG6136	DRSC15975	42723	22923	inactive
28	Taf8	DRSC20363	3.15e5	3.15e5	inactive
29	CG18744	DRSC15381	66017	57313	inactive
30	Taf5	DRSC07562	57430	46827	inactive
31	PTP-ER	DRSC04636	79813	57380	inactive
32	dpr12	DRSC04814	91137	91483	inactive
33	dpr12	DRSC04863	73130	57677	inactive
34	dpr12	DRSC04892	45493	57540	inactive
35	CG11248	DRSC11644	29723	18457	inactive
36	CG32773 (retired record)	DRSC17330	2.42e5	2.29e5	inactive
37	CG34315 + Orc3	DRSC07642	46133	74047	inactive
38	CG30428	DRSC04041	95057	93347	inactive
39	CG6527	DRSC10659	72797	55083	inactive
40	Cyp6a13	DRSC07375	73723	83117	inactive
41	CG30083	DRSC05572	1.16e5	1.39e5	inactive
42	alpha-Man-Ia	DRSC17642	79303	92937	inactive
43	alpha-Man-Ia	DRSC18162	2.97e5	2.69e5	inactive
44	alpha-Man-Ia	DRSC18163	2.95e5	2.90e5	inactive
45	alpha-Man-Ia	DRSC18735	3.20e5	2.73e5	inactive
46	Prosalpha4T2	DRSC04643	66090	48013	inactive
47	CG42246	DRSC17520	1.89e5	1.76e5	inactive
48	CG11986	DRSC14461	1.01e5	34840	inactive
49	Lamtor3	DRSC02815	68247	72597	inactive
50	CG15715	DRSC10216	94530	57593	inactive
51	Gem3	DRSC11144	71687	54583	inactive
52	CG14312	DRSC14791	84060	95080	inactive
53	CG14811	DRSC17962	54220	42770	inactive
54	CR13656	DRSC13705	2.56e5	2.42e5	inactive
55	CR13656	DRSC14656	59500	56050	inactive
56	CSN1b	DRSC11108	18563	23863	inactive
57	CG18659	DRSC06784	55707	81293	inactive
58	Su(dx)	DRSC00791	1.30e5	79480	inactive
59	CG3505	DRSC15489	75870	42143	inactive
60	exex	DRSC10972	72247	86993	inactive
61	Ccp84Ab	DRSC12587	55057	54733	inactive
62	Afg3l2	DRSC10657	24160	27280	inactive
63	Septin1	DRSC20573	2.25e5	2.71e5	inactive
64	CG13622	DRSC14624	58580	60450	inactive
65	CG33460	DRSC05570	95020	96937	inactive
66	CG42450	DRSC20022	3.27e5	3.09e5	inactive
67	CG3726	DRSC18320	72297	93300	inactive
68	CCT7	DRSC16410	55117	52583	inactive
69	Pka-R1	DRSC11674	20570	17827	inactive
70	Pka-R1	DRSC11875	14570	15940	inactive
71	CG11247	DRSC11643	29810	25243	inactive
72	Gk2	DRSC08610	63153	61150	inactive
73	Efr	DRSC18322	37960	40410	inactive
74	CG13376	DRSC17901	50270	40630	inactive
75	CG1304	DRSC20494	2.88e5	3.37e5	inactive
76	Blos4	DRSC10151	79810	71833	inactive
77	CrzR	DRSC09781	52900	48083	inactive
78	CrzR	DRSC09782	57983	60577	inactive
79	CG32452	DRSC11581	58117	59560	inactive
80	wwk	DRSC01941	68017	69213	inactive
81	Ir10a	DRSC18891	2.17e5	2.04e5	inactive
82	Ir10a	DRSC19478	3.62e5	3.40e5	inactive
83	Ir10a	DRSC19479	3.31e5	3.47e5	inactive
84	RagA-B	DRSC14450	39363	21997	inactive
85	Snap24	DRSC16864	53657	54847	inactive
86	CG1946	DRSC06804	50933	76757	inactive
87	Rx	DRSC03837	72650	79953	inactive
88	Rx	DRSC04652	53670	57430	inactive
89	aay	DRSC11320	38630	35820	inactive
90	BBS5	DRSC12168	70683	59500	inactive
91	Nup43	DRSC16279	77030	77650	inactive
92	CG30447	DRSC05820	1.82e5	1.51e5	inactive
93	Nedd4	DRSC11234	44170	46720	inactive
94	CG14329	DRSC14808	1.32e5	79500	inactive
95	CG15572	DRSC18060	45890	50230	inactive
96	CG34234 + Dh44-R2	DRSC07278	44213	41027	inactive
97	fand	DRSC06967	79893	61633	inactive
98	CG30110	DRSC05686	1.78e5	1.26e5	inactive
99	CG13721	DRSC08330	86447	99923	inactive
100	cmb	DRSC09790	71733	64977	inactive
101	CG17266	DRSC04979	45240	66843	inactive
102	clt	DRSC04621	62063	51820	inactive
103	CG33307	DRSC01349	2.33e5	1.71e5	inactive
104	CG14907 + Mettl4	DRSC15026	77890	60610	inactive
105	CG14907 + Mettl4	DRSC15027	65570	52220	inactive
106	CG1695	DRSC20538	4.00e5	4.27e5	inactive
107	Cpr66Cb	DRSC10769	78883	73367	inactive

Sorted by “raw ATP luminescence, replicate 1” (ascending): some entries from above
target gene	amplicon	raw ATP luminescence, replicate 1	raw ATP luminescence, replicate 2	call
CSN1b	DRSC11108	18563	23863	inactive
Afg3l2	DRSC10657	24160	27280	inactive
Ccp84Ab	DRSC12587	55057	54733	inactive
CG18659	DRSC06784	55707	81293	inactive
CG13622	DRSC14624	58580	60450	inactive
CR13656	DRSC14656	59500	56050	inactive
exex	DRSC10972	72247	86993	inactive
CG3726	DRSC18320	72297	93300	inactive
CG3505	DRSC15489	75870	42143	inactive
CG33460	DRSC05570	95020	96937	inactive
Su(dx)	DRSC00791	1.30e5	79480	inactive
Septin1	DRSC20573	2.25e5	2.71e5	inactive
CR13656	DRSC13705	2.56e5	2.42e5	inactive
CG42450	DRSC20022	3.27e5	3.09e5	inactive
